# Measurements published in PubChem BioAssay AID2685 (National Center for Advancing Translational Sciences (NCATS), 2010).
# Among all 320,000 compounds or so, about 2,100 (0.66%) were called active. This list was built around the results that the source calls inconclusive (neither active nor inactive); the mix of calls is not that of the screen. The call rests on the fitted dose curve; in most records, active means well fitted inhibition curve with a large enough effect in the signal ratio, with a control signal flat (not every such curve was filed as active); inconclusive means small, poorly fitted or top-dose-only effect, or effect the other way, or a change in a side signal; inactive means flat fitted curve, though single readings scatter; the % refers to the signal ratio. Potencies of inconclusive entries are doubtful fits and often do not repeat.
# Assay: qHTS Assay for Lipid Storage Modulators in Drosophila S3 Cells
# Details: BODIPY lipid droplet fluorescence, 18-24 h, cells fed with added oleic acid; lipid storage change, negative = inhibition: at 46.1 µM (top of the series) unless noted
# Outline: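 Drosophila S3 cells got compounds at several concentrations plus oleic acid (400 uM solution). Laser-scanning cytometry with 488 nm excitation read lipid droplets at 500-530 nm and cells at 575-640 nm. Percent activity was relative to 20 uM Triacsin C.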
# On the % scale 0 is the no-effect control and ±100 the full control effect; potency means the concentration at half of the fitted maximal effect.
Compound,"lipid storage change, negative = inhibition",Potency
COCCN1CCN(C(=O)c2cc(COc3ccc(F)cc3F)on2)CC1,inconclusive: 172%,–
Cc1ccc(N(CC(=O)N2CCOCC2)S(C)(=O)=O)cc1,–,"inconclusive: 1840 nM [falling, full curve]"
Cc1cc(NS(=O)(=O)c2ccc(NC(=O)C(C)Oc3ccc4c(C)cc(=O)oc4c3)cc2)no1 (stereo unspecified),–,"inconclusive: 116 nM [falling, full curve, poor fit]"
COc1ccc(OC)c(NC(=O)c2cccnc2)c1,inconclusive: 5.98%,–
COc1ccccc1CNC(=O)C(=O)NCC1OCCN1S(=O)(=O)c1ccc(Br)cc1 (stereo unspecified),inconclusive: -30.6%,–
CN(Cc1cccnc1)C(=O)c1cc(S(=O)(=O)Nc2ccccc2F)ccc1Cl,inconclusive,–
NC1=NC(=O)/C(=C/c2cn(Cc3ccccc3)c3ccccc23)S1,inconclusive: -33.3%,–
CC(=O)Nc1cc(C(N)=O)c(Cl)cc1Cl,–,"inconclusive: 1300 nM [falling, partial curve]"
CC(=O)Nc1ccc(NC(=O)Cc2sc(-c3cccnc3)nc2-c2ccc(C)cc2)cc1,inconclusive: -47.4%,–
COc1ccc(NC2CCCN(C(=O)COc3ccc(C)cc3)C2)cc1 (stereo unspecified),–,active: 2060 nM
Cc1ccc(OCCCn2cc(C#N)c3ccccc32)cc1,inconclusive: -8.32%,–
Cc1nn(C)c(C(=O)NNC(=S)NC2CCCCC2)c1Cl,inconclusive: -2.34%,–
Cc1ccc(S(=O)(=O)/N=C2/NC(=O)/C(=C/c3ccccn3)S2)cc1,inconclusive: -3.06%,–
C=CCn1cc(F)c(=O)n(CC=C)c1=O,inconclusive: 9.6%,–
Cc1cc(C)n(-c2nc(SCC(=O)O)c3c4c(sc3n2)COC(C)(C)C4)n1,inconclusive: 3.75%,–
O=C1CC(NNc2ccccc2)C(=O)N1c1ccc(N2CCCCC2)cc1 (stereo unspecified),inconclusive: 135%,–
S=c1[nH]nc(-c2cc(-c3ccccc3)n[nH]2)n1/N=C/c1ccccc1,–,"inconclusive: 29100 nM [falling, single point]"
O=C(Nc1ccccc1OC(F)F)c1ccc(-n2cncn2)c([N+](=O)[O-])c1,inconclusive: 30.6% [at 0.0737 µM],–
CN(C)S(=O)(=O)c1ccc(C(=O)Nc2nnc(SCC(=O)NCC3CCCO3)s2)cc1 (stereo unspecified),–,"inconclusive: 7310 nM [activator, partial curve]"
Cc1cccc2cc(CN(CC3CCCO3)C(=O)c3cccs3)c(=O)[nH]c12 (stereo unspecified),inconclusive: 9.53%,–
Cc1ccccc1CNc1ccc(C(CC(N)=O)NC(=O)c2ccccc2)cc1[N+](=O)[O-] (stereo unspecified),inconclusive: -13%,–
COc1cc(NC(=S)NCCCN(C)C)c(OC)cc1NC(=O)c1ccco1,inconclusive: -9.8%,–
CC1Cc2ccccc2N1C(=O)c1cnc2ccccn2c1=O (stereo unspecified),inconclusive: 7.55%,–
Cc1ccc(NC(=O)CN2C(=O)/C(=C\c3cccs3)SC2=S)cc1,–,"inconclusive: 4.6 nM [falling, full curve, poor fit]"
O=C(NCc1ccco1)Nc1ccc2snnc2c1,–,"inconclusive: 6510 nM [rising, partial curve, poor fit]"
CC1CC(C)CN(C(=O)CCNC(=O)Cn2ccc3ccccc3c2=O)C1 (stereo unspecified),–,"inconclusive: 5170 nM [falling, single point]"

Compound,"lipid storage change, negative = inhibition",Potency
Cn1nc(C(=O)OCc2ccc(F)cc2)c2ccccc2c1=O,inconclusive: 32.8%,–
Cc1c(N)cccc1N,inactive,–
CC(C)C(=O)OCc1cn(-c2ccc(Cl)c(Cl)c2)nn1,inconclusive: -13.3%,–
S=c1[nH]nc(-c2ccco2)n1/N=C/c1cccc(Cl)c1Cl,inconclusive: 9%,–
COc1ccc(N2CCN(C(=O)C(=O)c3c(C)[nH]c4ccccc34)CC2)cc1,inconclusive: 24.1%,–
CCCCC(=O)NNC(=S)NC(=O)CCC,inconclusive: -4.27%,–
CN(CC(=O)Nc1cccc(F)c1)C(=O)CSc1ccccc1,inconclusive,–
CCCCOP(=O)(OCCCC)C(O)c1ccc(N(C)C)cc1 (stereo unspecified),inconclusive: 21.8%,–
CCOC(=O)C1CCN(C(=O)CSc2ccccc2)CC1,inconclusive: 12.9%,–
CCC(=O)Nc1ccc(C(=O)NNC(=O)c2ccc(C)cc2)cc1,inconclusive: 53.5%,–
Cc1ccc(C)c(Cn2nnc3c(=O)[nH]c(C(=O)Nc4ccc(F)cc4)nc32)c1,–,"inconclusive: 4.6 nM [falling, full curve, poor fit]"
COc1ccc(C(C)=O)cc1COC(=O)Cn1cnc2ccccc2c1=O,inconclusive: 22.3%,–
O=C(Cn1nnc(-c2ccc(N3CCOCC3)cc2)n1)OC1CCCCC1,inconclusive: 20.3%,–
Cc1cc(O)cc(O[C@H]2OC(CO)[C@H](O)[C@@H](O)[C@H]2O)c1 (stereo partly specified),inconclusive: -4.35%,–
COc1cc(OC)cc(-c2c(C#Cc3ccsc3)c3cc(-c4ccc5cc[nH]c5c4)ccc3n2C)c1,inconclusive: 17.9%,–
CN(C1CCCC1)C1CCN(C(=O)CNC(=O)/C=C/c2ccc(F)cc2)CC1,–,"inconclusive: 651 nM [falling, single point]"
Cc1ccc(-c2cn(CCN)c(-c3ccc(Cl)nc3)n2)cc1,–,"inconclusive: 4.6 nM [falling, full curve, poor fit]"
Cc1cc(C)cc(OCC(=O)OC(C)C(=O)Nc2ccc(Cl)cn2)c1 (stereo unspecified),inconclusive,–
CCCCN1C(=O)/C(=C(/C#N)C(N)=O)c2ccccc21,–,"inconclusive: 16400 nM [falling, single point]"
Cc1occc1-c1nnc(SCCCC(=O)c2ccc(F)cc2)n1C,inconclusive: 33.7%,–
CC1CCCC(C)N1C(=O)COC(=O)COc1ccccc1C#N (stereo unspecified),inconclusive: 178%,–
COc1ccc(S(=O)(=O)N2CCN(C(=O)c3cnc(C)cn3)CC2)cc1,–,"inconclusive: 920 nM [falling, full curve, poor fit]"
CCOC(=O)c1ccc(NC(=O)NS(=O)(=O)c2ccc(C)cc2)cc1,–,"inconclusive: 920 nM [activator, full curve]"
Cc1cccc(Nc2nnc(SCC(=O)c3ccc(Br)s3)s2)c1C,–,"inconclusive: 10300 nM [activator, partial curve]"
COc1cccc(C2=CC(=O)C[C@H](c3ccc(OC)c(OC)c3)C2)c1,inconclusive: -8.67%,–
O=C1/C(=C\c2ccc(O)c(O)c2)C(c2ccccc2)=NN1c1ccccc1,inconclusive: -0.222%,–

Compound,"lipid storage change, negative = inhibition",Potency
CC(NC(=O)c1ccccc1Cl)NC(=O)c1ccccc1Cl,–,"inconclusive: 651 nM [activator, partial curve, poor fit]"
CN(Cc1ccc(Cl)cc1)C(=O)c1ccccc1SCC(=O)N1CCCC1,inconclusive,–
O=[N+]([O-])c1ccccc1S(=O)(=O)N(CC(O)CN1CCCCC1)c1ccccc1 (stereo unspecified),inconclusive: 60.1%,–
COc1ccc(OC(C)C(=O)Nc2cccc([N+](=O)[O-])c2)cc1 (stereo unspecified),inconclusive: 26%,–
CCOc1ccc(S(=O)(=O)N2CCCC(C(=O)Nc3cccc(C)c3)C2)cc1 (stereo unspecified),–,"inconclusive: 18400 nM [falling, partial curve, poor fit]"
COc1ccc(C(=O)CCN2CCN(c3ccccc3OC)CC2)cc1,inconclusive: 37.6%,–
COc1ccc(S(=O)(=O)N2CCCCC2)cc1NS(=O)(=O)c1cc(Cl)ccc1Cl,inconclusive: 14.7%,–
CC(=O)CSc1ccc(S(=O)(=O)N2CCN(C)CC2)cn1,–,"inconclusive: 29100 nM [activator, single point]"
Cc1cc(-c2ccc3ccccc3c2)n2ncnc2n1,inconclusive: 3.74%,–
COc1cc(/C=C/C(=O)OCC(=O)Nc2cc(S(=O)(=O)N3CCCCC3)ccc2C)ccc1O,–,"inconclusive: 2910 nM [activator, full curve, poor fit]"
CCOC(=O)C1CCN(C(=O)COc2ccc(N(C)S(=O)(=O)c3ccc(C)cc3)cc2)CC1,–,"inconclusive: 11.6 nM [falling, full curve, poor fit]"
Nc1ccc(S(=O)(=O)N2CCCC2)cc1Cl,inconclusive: -22%,–
COC(=O)C/C=C/[C@@H](C)[C@@H](/C=N/OC[C@H]1O[C@H](c2ccccc2)C=C[C@@H]1Oc1ccc(OC)cc1)NS(=O)(=O)c1ccc(C)cc1,–,"inconclusive: 11600 nM [activator, partial curve]"
Cc1ccc(C(=O)OCC(=O)N2CCNC2=O)c(C)c1,inconclusive,–
O=C(NCCc1ccccc1)C1=COCCO1,inconclusive: -23.7%,–
COc1cc(/C=N/N(C)C2=NS(=O)(=O)c3ccccc32)cc(OC)c1OC,–,"inconclusive: 164 nM [falling, partial curve, poor fit]"
CCN(CC)C(=O)CSC1=C(C#N)C(c2ccco2)C(C(=O)OCCOC)=C(C)N1 (stereo unspecified),inconclusive: -4.14%,–
CCc1cc(C(=O)N2CCN(S(=O)(=O)c3cc(C)ccc3C)CC2)sc1C,–,active: 20600 nM
Cc1ccc(OCCC(=O)NNC(=O)c2cc(C)oc2C)cc1,inconclusive: 68%,–
COC(=O)c1ccccc1NC(=O)N1CCN(Cc2ccco2)CC1,inconclusive: -5.6%,–
Cc1ccc(NC(=O)CN2CCN(C(=O)c3ccco3)CC2)cc1,inconclusive: 133%,–
CCC(Oc1ccccc1)C(=O)N1CCN(C(=O)C(CC)Oc2ccccc2)CC1 (stereo unspecified),–,"inconclusive: 164 nM [falling, full curve, poor fit]"
CCOc1ccc(Cc2c(C)[nH]c3ccc(C(=O)O)cc3c2=S)cc1,inconclusive: 45.9%,–
Cc1ccc(S(=O)(=O)NCC(c2ccco2)S(=O)(=O)c2ccccc2)cc1 (stereo unspecified),inconclusive: 21.3%,–

# Molecules shown so far containing a COOH group, in the order listed:
Compound,"lipid storage change, negative = inhibition",Potency
Cc1cc(C)n(-c2nc(SCC(=O)O)c3c4c(sc3n2)COC(C)(C)C4)n1,inconclusive: 3.75%,–
CCOc1ccc(Cc2c(C)[nH]c3ccc(C(=O)O)cc3c2=S)cc1,inconclusive: 45.9%,–

# Retrieved by compound from the list above (3):
Compound,"lipid storage change, negative = inhibition",Potency
COc1cc(/C=C/C(=O)OCC(=O)Nc2cc(S(=O)(=O)N3CCCCC3)ccc2C)ccc1O,–,"inconclusive: 2910 nM [activator, full curve, poor fit]"
CCOC(=O)C1CCN(C(=O)COc2ccc(N(C)S(=O)(=O)c3ccc(C)cc3)cc2)CC1,–,"inconclusive: 11.6 nM [falling, full curve, poor fit]"
Cc1ccc(S(=O)(=O)NCC(c2ccco2)S(=O)(=O)c2ccccc2)cc1 (stereo unspecified),inconclusive: 21.3%,–
